Reference: the supplement of paper PMC6331611
± gives the standard deviation of the averaged measurements. In all, about 1,600 compounds were measured (“normalized intracellular growth (luminescence, IQM-normalized) in RAW264.7 macrophages”: median about 1, lowest 2% from about 0.43 on). The list shows a part of the results.

Tested on: Salmonella enterica serovar Typhimurium SL1344
Experiment: normalized intracellular growth (luminescence, IQM-normalized) in RAW264.7 macrophages (fraction of plate interquartile mean); higher = more bacterial growth (less inhibition)
Conditions: 10 µM

Row | Structure (SMILES) | normalized intracellular growth (time point: T3 (3 h)) | normalized intracellular growth (time point: Tfinal (~6 h))
1 | COc1ccc(-c2cc(C(F)F)nn2-c2ccc(S(N)(=O)=O)cc2)cc1F | 1.01 ± 0.069 | 0.754 ± 0.11
2 | OC[C@H]1O[C@@H](O[C@@H]2[C@@H](CO)OC(O)(CO)[C@H]2O)[C@H](O)[C@@H](O)[C@H]1O (mixture of isomers) | 0.999 ± 0.021 | 0.958 ± 0.011
3 | N[C@@H](C(=O)N[C@@H]1C(=O)N2C(C(=O)O)=C(Cl)CS[C@H]12)c1ccccc1 | 1.03 ± 0.054 | 1.08 ± 0.021
4 | COc1ccc(C(=O)NCc2ccc(OCCN(C)C)cc2)cc1OC | 1.03 ± 0.047 | 1.16 ± 0.094
5 | NC(N)=O | 0.844 ± 0.083 | 0.891 ± 0.085
6 | Cn1c([N+](=O)[O-])cnc1COC(N)=O | 1.1 ± 0.072 | 1.16 ± 0.34
7 | CN(C)[C@@H]1C(O)=C(C(N)=O)C(=O)[C@@]2(O)C(O)=C3C(=O)c4c(O)ccc(Cl)c4[C@@H](O)[C@H]3C[C@@H]12 | 0.727 ± 0.11 | 0.176 ± 0.0084
8 | O=S(=O)(O)CCS | 1.09 ± 0.031 | 1.17 ± 0.14
9 | CCn1cc(C(=O)O)c(=O)c2cnc(N3CCCC3)nc21 | 0.929 ± 0.0075 | 1.04 ± 0.053
10 | CCCCCCCCCCCCC[N+](C)(C)Cc1ccccc1 | 1.07 ± 0.048 | 0.634 ± 0.26
11 | CC(C)(C)NC[C@H](O)c1ccc(O)c(CO)c1 | 0.963 ± 0.019 | 1.1 ± 0.06
12 | CC(C)Nc1ncccn1 | 0.928 ± 0.053 | 1.05 ± 0.2
13 | O=C(O)c1cc(-c2ccc(F)cc2F)ccc1O | 1.04 ± 0.067 | 1.04 ± 0.077
14 | CCCCNC(=O)NS(=O)(=O)c1ccc(C)cc1 | 1.05 ± 0.025 | 1.07 ± 0.042
15 | CCOC(=O)OC(C)OC1=C(C(=O)Nc2ccccn2)N(C)S(=O)(=O)c2ccccc21 (stereo unspecified) | 1.02 ± 0.014 | 1.09 ± 0.13
16 | CC(=O)[C@H]1CC[C@H]2[C@@H]3C[C@H](C)C4=CC(=O)CC[C@]4(C)[C@H]3[C@@H](O)C[C@]12C | 0.767 ± 0.058 | 0.814 ± 0.2
17 | CCN1CC(CCN2CCOCC2)C(c2ccccc2)(c2ccccc2)C1=O (stereo unspecified) | 0.939 ± 0.066 | 1.04 ± 0.15
18 | CC(=O)OCC(=O)[C@@]12N=C(C)O[C@@H]1C[C@H]1[C@@H]3CCC4=CC(=O)C=C[C@]4(C)[C@H]3[C@@H](O)C[C@@]12C | 0.991 ± 0.028 | 1.06 ± 0.041
19 | CC(=O)Nc1ccc(CC(=O)O)cc1 | 0.918 ± 0.05 | 1.19 ± 0.1
20 | Cc1nc2n(c(=O)c1CCN1CCC(c3noc4cc(F)ccc34)CC1)CCCC2 | 1.101 ± 0.0088 | 0.922 ± 0.051
21 | CNCCC(Oc1ccc(C(F)(F)F)cc1)c1ccccc1 (stereo unspecified) | 0.851 ± 0.035 | 0.896 ± 0.47
22 | CC[C@H]1OC(=O)[C@H](C)C(=O)[C@H](C)[C@@H](O[C@@H]2O[C@H](C)C[C@H](N(C)C)[C@H]2O)[C@](C)(OC)C[C@@H](C)C(=O)[C@H](C)[C@H]2N(CCCCn3cnc(-c4cccnc4)c3)C(=O)O[C@]12C | 1.01 ± 0.086 | 0.0132 ± 0.0042
23 | CCCCOc1cc(C(=O)NCCN(CC)CC)c2ccccc2n1 | 1.08 ± 0.11 | 0.969 ± 0.1

Copied from the list:
Entry for O=C(O)c1cc(-c2ccc(F)cc2F)ccc1O under normalized intracellular growth (time point: T3 (3 h)): 1.04 ± 0.067
Entry for Cn1c([N+](=O)[O-])cnc1COC(N)=O under normalized intracellular growth (time point: T3 (3 h)): 1.1 ± 0.072
